Experimental data reported in paper doi:10.1101/2022.01.12.475264.
Results are given in words; binding and its absence hold for the method and conditions named. Binding seen in cells or lysates may run through a third protein. Some results given as binding are weak or reduced against the parent protein; the word gives no strength. Tags and fused reporters may be left off the sequences shown.

Molecular target: T1, GST-ICAT (Inhibitor of Catenin and TCF) (UniProt Q9NSA3)
T1 sequence: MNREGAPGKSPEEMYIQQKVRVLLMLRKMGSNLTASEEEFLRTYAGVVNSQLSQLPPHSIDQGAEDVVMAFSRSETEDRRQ
Test: pull-down

B1: β-catenin (protein, UniProt Q9WU82 1-781)
chain: MATQADLMELDMAMEPDRKAAVSHWQQQSYLDSGIHSGATTTAPSLSGKGNPEEEDVDTSQVLYEWEQGFSQSFTQEQVADIDGQYAMTRAQRVRAAMFPETLDEGMQIPSTQFDAAHPTNVQRLAEPSQMLKHAVVNLINYQDDAELATRAIPELTKLLNDEDQVVVNKAAVMVHQLSKKEASRHAIMRSPQMVSAIVRTMQNTNDVETARCTAGTLHNLSHHREGLLAIFKSGGIPALVKMLGSPVDSVLFYAITTLHNLLLHQEGAKMAVRLAGGLQKMVALLNKTNVKFLAITTDCLQILAYGNQESKLIILASGGPQALVNIMRTYTYEKLLWTTSRVLKVLSVCSSNKPAIVEAGGMQALGPHLTDPSQRLVQNCLWTLRNLSDAATKQEGMEGLLGTLVQLLGSDDINVVTCAAGILSNLTCNNYKNKMMVCQVGGIEALVRTVLRAGDREDITEPAICALRHLTSRHQEAEMAQNAVRLHYGLPVVVKLLHPPSHWPLIKATVGLIRNLALCPANHAPLREQGAIPRLVQLLVRAHQDTQRRTSMGGTQQQFVEGVRMEEIVEGCTGALHILARDVHNRIVIRGLNTIPLFVQLLYSPIENIQRVAAGVLCELAQDKEAAEAIEAEGATAPLTELLHSRNEGVATYAAAVLFRMSEDKPQDYKKRLSVELTSSLFRTEPMAWNETADLGLDIGAQGEALGYRQDDPSYRSFHSGGYGQDALGMDPMMEHEMGGHHPGADYPVDGLPDLGHAQDLMDGLPPGDSNQLAWFDTDL
binding: binds
